Measurements taken from PMC8743267.
These are yes or no findings as the source states them, for the method shown. In cells and extracts the contact can be indirect. A yes stands for co-enrichment or nearness to the bait. Other partners may have been found. No binding means not detected with the bait. Each block holds one molecule with its values, some of them ahead of it.

The chains behind the UniProt entries cited, without tags or fusion partners. Where a name states a change or a piece, a line headed by the entry shows the natural chain unless it says otherwise. Residues count along the entry.
UniProt P05362, residues 28-532: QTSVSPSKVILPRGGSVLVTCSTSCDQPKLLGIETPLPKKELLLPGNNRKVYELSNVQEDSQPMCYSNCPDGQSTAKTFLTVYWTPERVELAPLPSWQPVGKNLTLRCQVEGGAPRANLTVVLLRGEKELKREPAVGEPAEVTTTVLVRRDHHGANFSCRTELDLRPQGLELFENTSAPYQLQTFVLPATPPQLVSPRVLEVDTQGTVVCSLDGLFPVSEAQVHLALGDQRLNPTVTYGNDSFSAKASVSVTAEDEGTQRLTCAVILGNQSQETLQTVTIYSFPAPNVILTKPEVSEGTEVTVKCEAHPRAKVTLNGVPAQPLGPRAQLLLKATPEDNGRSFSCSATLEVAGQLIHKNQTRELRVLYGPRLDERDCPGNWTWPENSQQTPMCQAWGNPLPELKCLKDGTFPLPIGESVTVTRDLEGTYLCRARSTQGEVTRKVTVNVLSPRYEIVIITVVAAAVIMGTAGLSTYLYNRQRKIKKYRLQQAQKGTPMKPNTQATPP
UniProt Q9UPT5: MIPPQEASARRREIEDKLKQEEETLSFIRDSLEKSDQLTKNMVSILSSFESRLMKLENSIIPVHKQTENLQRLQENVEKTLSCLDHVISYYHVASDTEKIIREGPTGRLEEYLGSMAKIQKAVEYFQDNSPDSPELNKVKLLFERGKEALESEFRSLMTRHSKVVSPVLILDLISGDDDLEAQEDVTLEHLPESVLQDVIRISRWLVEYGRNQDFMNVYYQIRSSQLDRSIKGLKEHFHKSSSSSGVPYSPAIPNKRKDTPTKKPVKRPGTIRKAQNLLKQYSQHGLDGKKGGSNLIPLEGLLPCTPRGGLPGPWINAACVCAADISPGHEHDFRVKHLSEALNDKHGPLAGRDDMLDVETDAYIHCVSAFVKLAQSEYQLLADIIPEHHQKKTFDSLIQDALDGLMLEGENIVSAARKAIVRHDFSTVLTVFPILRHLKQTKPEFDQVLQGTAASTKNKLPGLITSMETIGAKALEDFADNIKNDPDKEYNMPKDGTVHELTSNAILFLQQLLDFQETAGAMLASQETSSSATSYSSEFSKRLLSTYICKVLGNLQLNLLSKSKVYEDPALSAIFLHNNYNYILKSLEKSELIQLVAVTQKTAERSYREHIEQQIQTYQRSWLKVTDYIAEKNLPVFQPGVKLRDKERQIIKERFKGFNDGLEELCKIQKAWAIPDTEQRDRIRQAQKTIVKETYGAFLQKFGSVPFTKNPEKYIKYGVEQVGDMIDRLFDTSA

Molecular target: ICAM-1-BirA* chimera (UniProt P05362)
Assay: proximity labelling; BioID: HepG2 cells stably expressing ICAM-1-BirA* incubated with 50 uM biotin for 16 h, lysed, biotinylated proteins pulled down with neutravidin-agarose, western blot; parental HepG2 cells as control

binding: no binding
Molecule: exocyst component Exo70 (from UniProt Q9UPT5 1-735)

binding: no binding
B1: EPS15 homology (EH) domain-containing protein EHD1 (protein, UniProt Q9H4M9 1-534)
chain: MFSWVSKDARRKKEPELFQTVAEGLRQLYAQKLLPLEEHYRFHEFHSPALEDADFDNKPMVLLVGQYSTGKTTFIRHLIEQDFPGMRIGPEPTTDSFIAVMHGPTEGVVPGNALVVDPRRPFRKLNAFGNAFLNRFMCAQLPNPVLDSISIIDTPGILSGEKQRISRGYDFAAVLEWFAERVDRIILLFDAHKLDISDEFSEVIKALKNHEDKIRVVLNKADQIETQQLMRVYGALMWSLGKIINTPEVVRVYIGSFWSHPLLIPDNRKLFEAEEQDLFKDIQSLPRNAALRKLNDLIKRARLAKVHAYIISSLKKEMPNVFGKESKKKELVNNLGEIYQKIEREHQISPGDFPSLRKMQELLQTQDFSKFQALKPKLLDTVDDMLANDIARLMVMVRQEESLMPSQVVKGGAFDGTMNGPFGHGYGEGAGEGIDDVEWVVGKDKPTYDEIFYTLSPVNGKITGANAKKEMVKSKLPNTVLGKIWKLADVDKDGLLDDEEFALANHLIKVKLEGHELPADLPPHLVPPSKRRHE

binding: binds
B2: plasmolipin (PLLP) (protein, UniProt Q9Y342 1-182)
chain: MAEFPSKVSTRTSSPAQGAEASVSALRPDLGFVRSRLGALMLLQLVLGLLVWALIADTPYHLYPAYGWVMFVAVFLWLVTIVLFNLYLFQLHMKLYMVPWPLVLMIFNISATVLYITAFIACSAAVDLTSLRGTRPYNQRAAASFFACLVMIAYGVSAFFSYQAWRGVGSNAATSQMAGGYA
